Some of these results come from one statement about several compounds together. At least one compound was matched to its structure with a doubt left.
What was measured:
[1] = tested on: gray mold fungi (Botrytis cinerea); assay: Test Example B: tomato gray mold, spray test on potted tomato plants; conditions: tomato (Oogata Fukuju), 250 ppm spray 2.5 ml/pot before inoculation, 2 to 3 days after inoculation
[2] = tested on: cucumber anthracnose fungi (Colletotrichum orbiculare); assay: Test Example H: cucumber anthracnose, spray test on potted cucumber plants; conditions: cucumber (Sagami Hanjiro), 250 ppm spray 2.5 ml/pot before inoculation, 6 to 10 days after inoculation
[3] = tested on: cabbage alternaria sooty spot fungi (Alternaia brassicicola); assay: Test Example C: cabbage alternaria sooty spot, spray test on potted cabbage plants; conditions: cabbage (Shikidori), 250 ppm spray 2.5 ml/pot before inoculation, 2 to 3 days after inoculation

Measured: control value

CCN(CC)c1cc(Cl)c(=O)n(CC)c1-c1ccccc1Cl [compound 366]
> 50%: all assays above

CCN(CC(F)F)c1cc(Cl)c(=O)n(CC)c1-c1ccccc1Br [compound 407]
> 50%: all assays above

CCn1c(-c2ccccc2Br)c(N(C)CC(F)F)cc(Br)c1=O [compound 402]
> 50%: all assays above

CCn1c(-c2ccc(F)cc2Br)c(N(C)CC(F)F)cc(Cl)c1=O [compound 324]
> 50%: all assays above

CCN(CC)c1cc(Cl)c(=O)n(CC)c1-c1ccc(F)cc1C [compound 388]
> 50%: all assays above

CCN(C)c1cc(Br)c(=O)n(CC)c1-c1ccc(F)cc1C [compound 380]
> 50%: all assays above

CCn1c(-c2c(F)cc(F)cc2F)c(N(C)C)cc(Br)c1=O [Compound 64]
> 50%: all assays above

CCn1c(-c2ccc(F)cc2Br)c(N(C)C(C)C)cc(Cl)c1=O [Compound 284]
> 50%: all assays above

CCn1c(-c2c(F)cccc2Cl)c(N(C)C(C)C)cc(Br)c1=O [compound 333]
> 50%: all assays above

C#CCN(C)c1cc(Br)c(=O)n(CC)c1-c1c(F)cccc1Cl [compound 328]
> 50%: all assays above

CCn1c(-c2ccc(F)cc2C)c(N(C)C(C)C)cc(Cl)c1=O [compound 391]
> 50%: all assays above

CCN(C)c1cc(Br)c(=O)n(C)c1-c1c(F)cc(F)cc1F [Compound 85]
> 50%: all assays above

CCN(CC)c1cc(Br)c(=O)n(CC)c1-c1ccc(F)cc1Cl [compound 340]
> 50%: all assays above

CCn1c(-c2ccc(F)cc2Br)c(N2CCCCC2)cc(Cl)c1=O [compound 315]
> 50%: all assays above

CCn1c(-c2ccccc2F)c(N(C)C(C)C)cc(Cl)c1=O [compound 385]
> 50%: all assays above

CCn1c(-c2ccc(F)cc2Cl)c(N(C)CC(F)F)cc(Br)c1=O [Compound 232]
> 50%: all assays above

CCN(C)c1cc(Br)c(=O)n(CC)c1-c1c(F)cccc1Cl [compound 330]
> 50%: all assays above

CCN(c1cc(Br)c(=O)n(CC(F)F)c1-c1c(F)cc(F)cc1F)C(C)C [Compound 157]
> 50%: all assays above

CCN(CC(F)F)c1cc(Br)c(=O)n(CC)c1-c1ccc(F)cc1Cl [Compound 234]
> 50%: all assays above

CCn1c(-c2c(F)cc(OC)cc2F)c(N(C)C)cc(Br)c1=O [Compound 75]
> 50%: all assays above

CCn1c(-c2ccc(F)cc2C)c(N(C)CC(F)F)cc(Cl)c1=O [compound 386]
> 50%: all assays above

CCn1c(-c2ccc(F)cc2Cl)c(N(C)C)cc(Cl)c1=O [Compound 35]
> 50%: all assays above
